No constants are given. Whether binding was seen depends on the method and setting.
Molecular target: recombinant Aspergillus fumigatus LysM domain protein A (LdpA) expressed in Pichia pastoris (Aspergillus fumigatus) (UniProt Q4WER9)
Test: flow cytometry on beads; rLdpA (20 μg) held on 1 mg Dynabeads (His-Tag Isolation & Pulldown kit); incubated with FITC-labeled lectin (20 μg); lectin bound to rLdpA measured by flow cytometry; both purified

Protein sequences, listed by entry. Tags and fused reporters are not part of them. Residues count along the entry.
UniProt Q4WER9, residues 20-378: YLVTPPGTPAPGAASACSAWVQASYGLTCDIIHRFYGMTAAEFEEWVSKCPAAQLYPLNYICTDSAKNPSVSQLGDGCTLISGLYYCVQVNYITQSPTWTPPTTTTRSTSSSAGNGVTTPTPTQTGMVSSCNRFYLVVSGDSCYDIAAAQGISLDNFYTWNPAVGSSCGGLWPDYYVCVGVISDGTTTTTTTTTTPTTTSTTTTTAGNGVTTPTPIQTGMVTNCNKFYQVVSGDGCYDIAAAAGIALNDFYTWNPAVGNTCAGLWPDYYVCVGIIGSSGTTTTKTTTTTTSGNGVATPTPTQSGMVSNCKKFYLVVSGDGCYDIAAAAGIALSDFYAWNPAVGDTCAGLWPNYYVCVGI

B1: fluorescein isothiocyanate (FITC)-labeled peanut agglutinin (protein, UniProt P02872 24-273)
chain: AETVSFNFNSFSEGNPAINFQGDVTVLSNGNIQLTNLNKVNSVGRVLYAMPVRIWSSATGNVASFLTSFSFEMKDIKDYDPADGIIFFIAPEDTQIPAGSIGGGTLGVSDTKGAGHFVGVEFDTYSNSEYNDPPTDHVGIDVNSVDSVKTVPWNSVSGAVVKVTVIYDSSTKTLSVAVTNDNGDITTIAQVVDLKAKLPERVKFGFSASGSLGGRQIHLIRSWSFTSTLITTTRRSIDNNEKKIMNMASA
modifications: FITC label (site not stated)
Q: Which binding does the source give for B1 here?
A: no binding (tested: 20 μg of lectin)

Reference: paper PMC10763971
